Laboratory results reported in publication PMC4059726.
These are yes or no findings as the source states them, for the method shown. In cells and extracts the contact can be indirect. Some binding calls cover weakened binding; strength is not graded here. Tags and fused reporters may be left off the sequences shown.

By UniProt entry, the sequences of proteins in these tests, tags left out.
UniProt P21333: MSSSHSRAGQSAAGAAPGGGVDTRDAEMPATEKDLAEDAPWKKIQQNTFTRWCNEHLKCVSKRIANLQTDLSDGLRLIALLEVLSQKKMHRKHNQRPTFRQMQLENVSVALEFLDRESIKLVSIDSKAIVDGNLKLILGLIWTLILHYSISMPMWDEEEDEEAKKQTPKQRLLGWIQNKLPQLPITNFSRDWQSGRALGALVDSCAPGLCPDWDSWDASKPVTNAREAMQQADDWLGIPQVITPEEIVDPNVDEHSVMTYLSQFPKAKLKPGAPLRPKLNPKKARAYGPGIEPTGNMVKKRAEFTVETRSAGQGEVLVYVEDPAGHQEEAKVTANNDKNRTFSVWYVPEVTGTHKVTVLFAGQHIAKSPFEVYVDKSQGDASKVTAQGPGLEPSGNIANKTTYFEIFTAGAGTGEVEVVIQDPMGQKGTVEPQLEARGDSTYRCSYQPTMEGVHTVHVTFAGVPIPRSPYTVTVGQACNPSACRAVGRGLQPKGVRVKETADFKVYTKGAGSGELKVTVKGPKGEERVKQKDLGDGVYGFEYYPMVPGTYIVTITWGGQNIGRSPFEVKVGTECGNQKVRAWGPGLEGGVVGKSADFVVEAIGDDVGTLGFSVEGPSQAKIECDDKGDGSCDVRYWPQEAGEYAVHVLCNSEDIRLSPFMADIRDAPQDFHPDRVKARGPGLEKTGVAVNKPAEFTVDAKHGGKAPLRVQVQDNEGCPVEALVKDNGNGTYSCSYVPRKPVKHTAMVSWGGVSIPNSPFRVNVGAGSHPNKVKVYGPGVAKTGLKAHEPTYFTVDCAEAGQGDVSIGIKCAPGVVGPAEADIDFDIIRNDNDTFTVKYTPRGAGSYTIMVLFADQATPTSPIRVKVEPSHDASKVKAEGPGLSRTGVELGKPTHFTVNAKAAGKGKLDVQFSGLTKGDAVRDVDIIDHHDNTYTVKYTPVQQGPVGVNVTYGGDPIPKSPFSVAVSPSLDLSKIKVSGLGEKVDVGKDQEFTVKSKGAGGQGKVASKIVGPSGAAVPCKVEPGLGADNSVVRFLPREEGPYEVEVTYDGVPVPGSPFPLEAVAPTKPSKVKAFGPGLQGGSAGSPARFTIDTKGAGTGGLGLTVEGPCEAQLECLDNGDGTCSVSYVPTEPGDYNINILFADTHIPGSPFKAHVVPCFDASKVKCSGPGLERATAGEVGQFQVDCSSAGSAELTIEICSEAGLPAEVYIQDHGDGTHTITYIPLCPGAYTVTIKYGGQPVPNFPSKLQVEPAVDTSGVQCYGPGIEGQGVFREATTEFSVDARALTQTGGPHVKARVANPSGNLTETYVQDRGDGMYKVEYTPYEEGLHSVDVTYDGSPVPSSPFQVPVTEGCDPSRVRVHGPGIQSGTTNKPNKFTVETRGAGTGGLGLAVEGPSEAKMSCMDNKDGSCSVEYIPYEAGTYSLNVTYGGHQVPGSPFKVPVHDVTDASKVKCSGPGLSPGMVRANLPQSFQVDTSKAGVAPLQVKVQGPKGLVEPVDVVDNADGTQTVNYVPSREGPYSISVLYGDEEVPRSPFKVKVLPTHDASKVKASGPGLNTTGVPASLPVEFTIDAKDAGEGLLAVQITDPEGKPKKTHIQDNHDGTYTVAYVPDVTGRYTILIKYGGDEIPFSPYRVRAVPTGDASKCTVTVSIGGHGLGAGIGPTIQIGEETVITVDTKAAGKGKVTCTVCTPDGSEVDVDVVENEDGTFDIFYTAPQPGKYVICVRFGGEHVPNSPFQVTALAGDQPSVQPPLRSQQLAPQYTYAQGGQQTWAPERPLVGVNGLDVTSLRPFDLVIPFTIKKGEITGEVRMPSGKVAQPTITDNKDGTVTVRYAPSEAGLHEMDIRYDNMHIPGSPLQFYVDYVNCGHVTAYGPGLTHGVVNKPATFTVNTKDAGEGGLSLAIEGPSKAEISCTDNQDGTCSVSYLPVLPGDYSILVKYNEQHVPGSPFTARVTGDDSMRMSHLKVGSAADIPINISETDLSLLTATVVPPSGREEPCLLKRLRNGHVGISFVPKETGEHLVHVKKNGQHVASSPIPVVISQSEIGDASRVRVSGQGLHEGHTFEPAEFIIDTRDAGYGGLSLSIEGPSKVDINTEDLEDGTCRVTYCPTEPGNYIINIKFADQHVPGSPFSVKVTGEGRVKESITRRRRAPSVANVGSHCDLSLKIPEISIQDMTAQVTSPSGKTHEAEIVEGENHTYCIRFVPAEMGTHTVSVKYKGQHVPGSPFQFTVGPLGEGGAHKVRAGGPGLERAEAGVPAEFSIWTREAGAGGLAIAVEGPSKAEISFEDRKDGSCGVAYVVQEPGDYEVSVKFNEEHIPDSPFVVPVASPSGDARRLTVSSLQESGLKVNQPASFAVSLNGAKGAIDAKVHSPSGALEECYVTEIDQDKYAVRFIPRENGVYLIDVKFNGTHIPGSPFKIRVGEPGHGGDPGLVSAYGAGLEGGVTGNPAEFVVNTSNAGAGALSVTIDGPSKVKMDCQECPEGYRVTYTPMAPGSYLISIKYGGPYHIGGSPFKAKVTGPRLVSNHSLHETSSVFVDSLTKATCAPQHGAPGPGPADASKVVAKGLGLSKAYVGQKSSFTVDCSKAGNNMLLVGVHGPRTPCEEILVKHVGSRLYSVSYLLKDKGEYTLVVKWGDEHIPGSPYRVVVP

T1: HA-FilGAP (human) (UniProt Q8N264)
T1 sequence: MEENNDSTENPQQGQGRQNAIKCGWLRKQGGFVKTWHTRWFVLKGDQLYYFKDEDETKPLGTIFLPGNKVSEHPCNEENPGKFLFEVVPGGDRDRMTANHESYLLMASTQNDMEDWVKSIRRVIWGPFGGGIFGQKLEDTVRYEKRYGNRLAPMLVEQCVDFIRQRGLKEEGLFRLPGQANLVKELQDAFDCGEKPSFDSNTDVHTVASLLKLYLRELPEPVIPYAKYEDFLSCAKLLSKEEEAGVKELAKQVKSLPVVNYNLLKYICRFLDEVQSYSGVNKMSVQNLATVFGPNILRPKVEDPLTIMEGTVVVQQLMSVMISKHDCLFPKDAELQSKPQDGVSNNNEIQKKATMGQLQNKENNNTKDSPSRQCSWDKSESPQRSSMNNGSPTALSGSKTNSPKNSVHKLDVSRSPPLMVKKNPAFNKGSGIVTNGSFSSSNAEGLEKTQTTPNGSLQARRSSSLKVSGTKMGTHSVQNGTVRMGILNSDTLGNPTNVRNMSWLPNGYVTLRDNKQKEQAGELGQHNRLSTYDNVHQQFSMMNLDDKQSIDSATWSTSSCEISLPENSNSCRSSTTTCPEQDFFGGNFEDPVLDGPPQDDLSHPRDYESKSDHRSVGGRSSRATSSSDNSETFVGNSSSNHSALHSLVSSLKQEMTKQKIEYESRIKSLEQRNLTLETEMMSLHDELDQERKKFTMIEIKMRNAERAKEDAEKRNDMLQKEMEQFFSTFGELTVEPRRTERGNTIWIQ


How the values were obtained:
HA-FilGAP (human) [1] = molecular target: T1, HA-FilGAP (human); assay: co-IP; HEK cells transfected with HA-ARHGAP22 or HA-FilGAP; immunoprecipitated from cell extracts with anti-HA agarose; endogenous FLNa detected by immunoblot with anti-FLNa antibody
HA-FilGAP (human) [2] = molecular target: T1, HA-FilGAP (human); assay: cross-linking; transfected HEK293 cells treated with DSP (1 mM, 30 min, 25°C), lysed, boiled with or without 2-mercaptoethanol; immunoblot with anti-ARHGAP22 or anti-FilGAP antibody
HA-FilGAP (human) [3] = molecular target: T1, HA-FilGAP (human); assay: co-IP; HEK293 cells co-transfected with the HA-tagged and the FLAG-tagged copy of the same protein; anti-HA agarose, 1 h at 4°C; 20 mM Tris-HCl pH 7.5, 150 mM NaCl, 1 mM EDTA, 0.1% NP-40; immunoblot with anti-FLAG and anti-HA

binding (HA-FilGAP (human) [1])	binding (HA-FilGAP (human) [2])	binding (HA-FilGAP (human) [3])	Molecule
binds	–	–	Filamin A (from UniProt P21333 1-2647)
–	binds	binds	HA-FilGAP (protein, UniProt Q8N264-1 1-748) MEENNDSTENPQQGQGRQNAIKCGWLRKQGGFVKTWHTRWFVLKGDQLYYFKDEDETKPLGTIFLPGNKVSEHPCNEENPGKFLFEVVPGGDRDRMTANHESYLLMASTQNDMEDWVKSIRRVIWGPFGGGIFGQKLEDTVRYEKRYGNRLAPMLVEQCVDFIRQRGLKEEGLFRLPGQANLVKELQDAFDCGEKPSFDSNTDVHTVASLLKLYLRELPEPVIPYAKYEDFLSCAKLLSKEEEAGVKELAKQVKSLPVVNYNLLKYICRFLDEVQSYSGVNKMSVQNLATVFGPNILRPKVEDPLTIMEGTVVVQQLMSVMISKHDCLFPKDAELQSKPQDGVSNNNEIQKKATMGQLQNKENNNTKDSPSRQCSWDKSESPQRSSMNNGSPTALSGSKTNSPKNSVHKLDVSRSPPLMVKKNPAFNKGSGIVTNGSFSSSNAEGLEKTQTTPNGSLQARRSSSLKVSGTKMGTHSVQNGTVRMGILNSDTLGNPTNVRNMSWLPNGYVTLRDNKQKEQAGELGQHNRLSTYDNVHQQFSMMNLDDKQSIDSATWSTSSCEISLPENSNSCRSSTTTCPEQDFFGGNFEDPVLDGPPQDDLSHPRDYESKSDHRSVGGRSSRATSSSDNSETFVGNSSSNHSALHSLVSSLKQEMTKQKIEYESRIKSLEQRNLTLETEMMSLHDELDQERKKFTMIEIKMRNAERAKEDAEKRNDMLQKEMEQFFSTFGELTVEPRRTERGNTIWIQ
